Measurements from PubChem BioAssay AID256 (DTP/NCI, 2004).
The list shows only some results of the screen, not a fair sample: it gathers tests that were run many times, whatever their T/C, doses with no T/C, and many T/C values between a quarter and a half above the control. Other doses and runs of a compound stand elsewhere. T/C is the treated group as % of the vehicle group. Some doses have a count of surviving animals in place of a T/C: the source holds a T/C of zero for them, seemingly a mark for toxic or unscored doses. Some survivor counts are full or nearly so, which does not show that the dose was tolerated: the source hardly ever lists a survival T/C far under the control, and the zero likely stands for such cases as well. Counts of survivors are from the toxicity check (mostly the fifth day) where no day follows; animals may have died later. Schedule codes are those of the source, taken here to give the interval after Q, in days (D) or hours (H), and the number of doses after X. Some entries hold several experiments; the values are given in rising order. Additions like (4×) say how often a value occurs here. Where survival is the endpoint, the PubChem record calls one and a half times the control and up active, and a quarter to a half above the control has no call in these data; cut-offs in other NCI protocols can differ. Some T/C values carry the count of animals alive at the toxicity check (mostly the fifth day); where none is given, no animal had died by that day.

Test system: CD2F1 mice, L1210 leukemia ip, survival T/C
Assay: NCI In Vivo Anticancer Drug Screen. Data for tumor model L1210 Leukemia (intraperitoneal) in CD2F1 (CDF1) mice
Details: higher T/C = longer survival
Method in brief: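 Activity against a transplanted murine tumor was judged by comparing the compound group with a vehicle group. The outcome in the treated animals was divided by that in the controls.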

[1] = T/C endpoint: mean survival time, dose: 50.0 mg/kg/injection, schedule: Q04DX003 (ip), vehicle: Klucel (hydroxypropylcellulose) (HPC)
[2] = T/C endpoint: mean survival time, dose: 100.0 mg/kg/injection, schedule: Q04DX003 (ip), vehicle: Klucel (hydroxypropylcellulose) (HPC)
[3] = T/C endpoint: mean survival time, dose: 200.0 mg/kg/injection, schedule: Q04DX003 (ip), vehicle: Klucel (hydroxypropylcellulose) (HPC)
[4] = T/C endpoint: mean survival time, dose: 25.0 mg/kg/injection, schedule: Q04DX002 (ip), vehicle: saline with Tween-80
[5] = T/C endpoint: mean survival time, dose: 200.0 mg/kg/injection, schedule: Q04DX002 (ip), vehicle: saline with Tween-80
[6] = T/C endpoint: mean survival time, dose: 400.0 mg/kg/injection, schedule: Q04DX002 (ip), vehicle: saline with Tween-80
[7] = T/C endpoint: mean survival time, dose: 20.0 mg/kg/injection, schedule: Q01DX009 (ip), vehicle: saline with Tween-80
[8] = T/C endpoint: mean survival time, dose: 300.0 mg/kg/injection, schedule: Q01DX001 (ip), vehicle: saline
[9] = T/C endpoint: mean survival time, dose: 150.0 mg/kg/injection, schedule: Q01DX001 (ip), vehicle: saline
[10] = T/C endpoint: mean survival time, dose: 400.0 mg/kg/injection, schedule: Q04DX003 (ip), vehicle: saline with Tween-80

Compound: CC(O)C(=O)O.CCCCOC(=O)CC(O)(CC(=O)OCCCC)C(=O)OCCCC.[Cl-].[Cl-].[NH2-].[NH2-].[Pt+4]
- T/C (T/C endpoint: mean survival time, dose: 12.5 mg/kg/injection, schedule: Q04DX003 (ip), vehicle: Klucel (hydroxypropylcellulose) (HPC)): 148 % of control
- T/C (T/C endpoint: mean survival time, dose: 25.0 mg/kg/injection, schedule: Q04DX003 (ip), vehicle: Klucel (hydroxypropylcellulose) (HPC)): 136, 139, 146 % of control
- T/C [1]: 127 % of control
- survivor count [1]: 3 of 6
- T/C [2]: 138 and 146 % of control
- survivor count [2]: 0 of 6 and 6 of 6
- survivor count [3]: 0 of 6 (2×), 5 of 6, 6 of 6
- survivor count (T/C endpoint: mean survival time, dose: 400.0 mg/kg/injection, schedule: Q04DX003 (ip), vehicle: Klucel (hydroxypropylcellulose) (HPC)): 6 of 6

Compound: COc1c(NC(=O)Nc2ccccc2C)cccc1[N+](=O)[O-]
- survivor count [4]: 3 of 3
- survivor count [5]: 3 of 3
- survivor count [6]: 3 of 3

Compound: NCc1cn(C2OC(CO)C(O)C2O)c2ncnc(N)c12 (stereo unspecified)
- survivor count (T/C endpoint: mean survival time, dose: 12.5 mg/kg/injection, schedule: Q01DX005 (ip), vehicle: water): 4 of 6
- survivor count (T/C endpoint: mean survival time, dose: 25.0 mg/kg/injection, schedule: Q01DX005 (ip), vehicle: water): 5 of 6
- survivor count (T/C endpoint: mean survival time, dose: 50.0 mg/kg/injection, schedule: Q01DX005 (ip), vehicle: water): 0 of 6

Compound: CCc1nc(N)nc(N)c1-c1ccc(Cl)c(N=[N+]=[N-])c1
- T/C (T/C endpoint: median survival time, dose: 50.0 mg/kg/injection, schedule: Q01DX009 (ip), vehicle: distilled water + Tween-80): 130 % of control
- T/C (T/C endpoint: median survival time, dose: 200.0 mg/kg/injection, schedule: Q01DX009 (ip), vehicle: distilled water + Tween-80): 141 % of control
- survivor count (T/C endpoint: median survival time, dose: 400.0 mg/kg/injection, schedule: Q01DX009 (ip), vehicle: distilled water + Tween-80): 2 of 6

Compound: Cc1cc([NH-])c([NH-])cc1C.[Cl][Pt+2][Cl]
- T/C (T/C endpoint: mean survival time, dose: 5.0 mg/kg/injection, schedule: Q01DX009 (ip), vehicle: saline with Tween-80): 130 and 137 % of control
- T/C [7]: 128 % of control
- survivor count [7]: 6 of 8
- survivor count (T/C endpoint: mean survival time, dose: 40.0 mg/kg/injection, schedule: Q01DX009 (ip), vehicle: saline with Tween-80): 4 of 8 and 7 of 8

Compound: Nc1ncnc2c1ncn2CCCl
- survivor count (T/C endpoint: mean survival time, dose: 100.0 mg/kg/injection, schedule: Q01DX009 (ip), vehicle: saline with Tween-80): 2 of 6

Compound: CCOC(=O)c1[nH]c2cccc3c2c1CC(Br)C3=O (stereo unspecified)
- survivor count (T/C endpoint: median survival time, dose: 200.0 mg/kg/injection, schedule: Q01DX009 (ip), vehicle: saline with Tween-80): 3 of 6
- survivor count (T/C endpoint: median survival time, dose: 400.0 mg/kg/injection, schedule: Q01DX009 (ip), vehicle: saline with Tween-80): 0 of 6

Compound: Oc1ccc(Br)cc1/C=N/c1nc(-c2ccccc2)cs1.Oc1ccc(Br)cc1/C=N/c1nc(-c2ccccc2)cs1.[Co]
- survivor count (T/C endpoint: mean survival time, dose: 400.0 mg/kg/injection, schedule: Q01DX001 (ip), vehicle: saline): 3 of 3

Compound: CCCCCCCCCCCCCCCC[N+](C)(C)CC#CCCl
- survivor count [4]: 2 of 3
- survivor count (T/C endpoint: mean survival time, dose: 50.0 mg/kg/injection, schedule: Q04DX002 (ip), vehicle: saline with Tween-80): 1 of 3
- survivor count (T/C endpoint: mean survival time, dose: 100.0 mg/kg/injection, schedule: Q04DX002 (ip), vehicle: saline with Tween-80): 0 of 3 and 1 of 3
- survivor count [5]: 0 of 3
- survivor count [6]: 0 of 3

Compound: COc1cc2ccc(/C=N/NC(N)=S)cc2cc1OC
- survivor count (T/C endpoint: mean survival time, dose: 400.0 mg/kg/injection, schedule: Q01DX009 (ip), vehicle: water): 2 of 6

Compound: COc1ccc(CCNC(C)Cc2ccc(OC)c(OC)c2)cc1OC (stereo unspecified)
- survivor count (T/C endpoint: mean survival time, dose: 100.0 mg/kg/injection, schedule: Q01DX009 (ip), vehicle: water): 2 of 6
- survivor count (T/C endpoint: mean survival time, dose: 200.0 mg/kg/injection, schedule: Q01DX009 (ip), vehicle: water): 0 of 6

Compound: OC(CC1CCCC(CC(O)c2ccccc2)N1CCc1ccccc1)c1ccccc1 (stereo unspecified)
- survivor count [8]: 0 of 6

Compound: COC(C[P+](Cc1ccccc1)(c1ccccc1)c1ccccc1)OC
- survivor count [9]: 0 of 6
- survivor count [8]: 0 of 6

Compound: N#CC(C#N)=c1ccc(=C(C#N)C#N)cc1
- survivor count (T/C endpoint: mean survival time, dose: 200.0 mg/kg/injection, schedule: Q04DX003 (ip), vehicle: saline with Tween-80): 5 of 6
- survivor count [10]: 0 of 6

Compound: CC(=O)/C(=C\c1ccc(Cl)c(Cl)c1)C(=O)CCN(C)C
- T/C (T/C endpoint: median survival time, dose: 100.0 mg/kg/injection, schedule: Q01DX009 (ip), vehicle: saline): 127 % of control [5 of 6 alive]
- survivor count (T/C endpoint: median survival time, dose: 200.0 mg/kg/injection, schedule: Q01DX009 (ip), vehicle: saline): 0 of 6

Compound: CCN(CC)CCSC(=O)C(O)(c1ccccc1)c1cccc(C)c1 (stereo unspecified)
- survivor count [9]: 1 of 6
- survivor count [8]: 0 of 6

Compound: CCCOc1cc[n+]([O-])c2ccccc12
- survivor count [6]: 0 of 3

Compound: CN1CCN(CCSSCCN2CCN(C)CC2)CC1
- survivor count [10]: 3 of 6

Compound: COc1ccc(-c2nc(N)c3ncn(C4OC(CO)C(O)C4O)c3n2)cc1 (stereo unspecified)
- survivor count (T/C endpoint: mean survival time, dose: 100.0 mg/kg/injection, schedule: Q01DX005 (ip), vehicle: distilled water + Tween-80): 6 of 6

Compound: CC(=O)C1CCC2C3CC=C4CC(n5c(=O)cc[nH]c5=O)CCC4(C)C3CCC12C (stereo unspecified)
- T/C [3]: 130 % of control
